Assay results reported in the supplement of paper PMC10849652.
The other results are listed elsewhere or left out.

Sequences of proteins named here, by UniProt entry; tags and fusion partners are left off. A change or cut given only in a name is not applied to a line headed by its entry.
UniProt Q6IAA8, whole entry, looked up: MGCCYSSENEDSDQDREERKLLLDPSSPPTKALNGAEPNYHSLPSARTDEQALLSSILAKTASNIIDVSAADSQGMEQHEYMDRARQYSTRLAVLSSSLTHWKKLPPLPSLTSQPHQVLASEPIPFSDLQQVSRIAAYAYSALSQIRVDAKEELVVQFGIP
UniProt Q8NEZ4, whole entry, looked up: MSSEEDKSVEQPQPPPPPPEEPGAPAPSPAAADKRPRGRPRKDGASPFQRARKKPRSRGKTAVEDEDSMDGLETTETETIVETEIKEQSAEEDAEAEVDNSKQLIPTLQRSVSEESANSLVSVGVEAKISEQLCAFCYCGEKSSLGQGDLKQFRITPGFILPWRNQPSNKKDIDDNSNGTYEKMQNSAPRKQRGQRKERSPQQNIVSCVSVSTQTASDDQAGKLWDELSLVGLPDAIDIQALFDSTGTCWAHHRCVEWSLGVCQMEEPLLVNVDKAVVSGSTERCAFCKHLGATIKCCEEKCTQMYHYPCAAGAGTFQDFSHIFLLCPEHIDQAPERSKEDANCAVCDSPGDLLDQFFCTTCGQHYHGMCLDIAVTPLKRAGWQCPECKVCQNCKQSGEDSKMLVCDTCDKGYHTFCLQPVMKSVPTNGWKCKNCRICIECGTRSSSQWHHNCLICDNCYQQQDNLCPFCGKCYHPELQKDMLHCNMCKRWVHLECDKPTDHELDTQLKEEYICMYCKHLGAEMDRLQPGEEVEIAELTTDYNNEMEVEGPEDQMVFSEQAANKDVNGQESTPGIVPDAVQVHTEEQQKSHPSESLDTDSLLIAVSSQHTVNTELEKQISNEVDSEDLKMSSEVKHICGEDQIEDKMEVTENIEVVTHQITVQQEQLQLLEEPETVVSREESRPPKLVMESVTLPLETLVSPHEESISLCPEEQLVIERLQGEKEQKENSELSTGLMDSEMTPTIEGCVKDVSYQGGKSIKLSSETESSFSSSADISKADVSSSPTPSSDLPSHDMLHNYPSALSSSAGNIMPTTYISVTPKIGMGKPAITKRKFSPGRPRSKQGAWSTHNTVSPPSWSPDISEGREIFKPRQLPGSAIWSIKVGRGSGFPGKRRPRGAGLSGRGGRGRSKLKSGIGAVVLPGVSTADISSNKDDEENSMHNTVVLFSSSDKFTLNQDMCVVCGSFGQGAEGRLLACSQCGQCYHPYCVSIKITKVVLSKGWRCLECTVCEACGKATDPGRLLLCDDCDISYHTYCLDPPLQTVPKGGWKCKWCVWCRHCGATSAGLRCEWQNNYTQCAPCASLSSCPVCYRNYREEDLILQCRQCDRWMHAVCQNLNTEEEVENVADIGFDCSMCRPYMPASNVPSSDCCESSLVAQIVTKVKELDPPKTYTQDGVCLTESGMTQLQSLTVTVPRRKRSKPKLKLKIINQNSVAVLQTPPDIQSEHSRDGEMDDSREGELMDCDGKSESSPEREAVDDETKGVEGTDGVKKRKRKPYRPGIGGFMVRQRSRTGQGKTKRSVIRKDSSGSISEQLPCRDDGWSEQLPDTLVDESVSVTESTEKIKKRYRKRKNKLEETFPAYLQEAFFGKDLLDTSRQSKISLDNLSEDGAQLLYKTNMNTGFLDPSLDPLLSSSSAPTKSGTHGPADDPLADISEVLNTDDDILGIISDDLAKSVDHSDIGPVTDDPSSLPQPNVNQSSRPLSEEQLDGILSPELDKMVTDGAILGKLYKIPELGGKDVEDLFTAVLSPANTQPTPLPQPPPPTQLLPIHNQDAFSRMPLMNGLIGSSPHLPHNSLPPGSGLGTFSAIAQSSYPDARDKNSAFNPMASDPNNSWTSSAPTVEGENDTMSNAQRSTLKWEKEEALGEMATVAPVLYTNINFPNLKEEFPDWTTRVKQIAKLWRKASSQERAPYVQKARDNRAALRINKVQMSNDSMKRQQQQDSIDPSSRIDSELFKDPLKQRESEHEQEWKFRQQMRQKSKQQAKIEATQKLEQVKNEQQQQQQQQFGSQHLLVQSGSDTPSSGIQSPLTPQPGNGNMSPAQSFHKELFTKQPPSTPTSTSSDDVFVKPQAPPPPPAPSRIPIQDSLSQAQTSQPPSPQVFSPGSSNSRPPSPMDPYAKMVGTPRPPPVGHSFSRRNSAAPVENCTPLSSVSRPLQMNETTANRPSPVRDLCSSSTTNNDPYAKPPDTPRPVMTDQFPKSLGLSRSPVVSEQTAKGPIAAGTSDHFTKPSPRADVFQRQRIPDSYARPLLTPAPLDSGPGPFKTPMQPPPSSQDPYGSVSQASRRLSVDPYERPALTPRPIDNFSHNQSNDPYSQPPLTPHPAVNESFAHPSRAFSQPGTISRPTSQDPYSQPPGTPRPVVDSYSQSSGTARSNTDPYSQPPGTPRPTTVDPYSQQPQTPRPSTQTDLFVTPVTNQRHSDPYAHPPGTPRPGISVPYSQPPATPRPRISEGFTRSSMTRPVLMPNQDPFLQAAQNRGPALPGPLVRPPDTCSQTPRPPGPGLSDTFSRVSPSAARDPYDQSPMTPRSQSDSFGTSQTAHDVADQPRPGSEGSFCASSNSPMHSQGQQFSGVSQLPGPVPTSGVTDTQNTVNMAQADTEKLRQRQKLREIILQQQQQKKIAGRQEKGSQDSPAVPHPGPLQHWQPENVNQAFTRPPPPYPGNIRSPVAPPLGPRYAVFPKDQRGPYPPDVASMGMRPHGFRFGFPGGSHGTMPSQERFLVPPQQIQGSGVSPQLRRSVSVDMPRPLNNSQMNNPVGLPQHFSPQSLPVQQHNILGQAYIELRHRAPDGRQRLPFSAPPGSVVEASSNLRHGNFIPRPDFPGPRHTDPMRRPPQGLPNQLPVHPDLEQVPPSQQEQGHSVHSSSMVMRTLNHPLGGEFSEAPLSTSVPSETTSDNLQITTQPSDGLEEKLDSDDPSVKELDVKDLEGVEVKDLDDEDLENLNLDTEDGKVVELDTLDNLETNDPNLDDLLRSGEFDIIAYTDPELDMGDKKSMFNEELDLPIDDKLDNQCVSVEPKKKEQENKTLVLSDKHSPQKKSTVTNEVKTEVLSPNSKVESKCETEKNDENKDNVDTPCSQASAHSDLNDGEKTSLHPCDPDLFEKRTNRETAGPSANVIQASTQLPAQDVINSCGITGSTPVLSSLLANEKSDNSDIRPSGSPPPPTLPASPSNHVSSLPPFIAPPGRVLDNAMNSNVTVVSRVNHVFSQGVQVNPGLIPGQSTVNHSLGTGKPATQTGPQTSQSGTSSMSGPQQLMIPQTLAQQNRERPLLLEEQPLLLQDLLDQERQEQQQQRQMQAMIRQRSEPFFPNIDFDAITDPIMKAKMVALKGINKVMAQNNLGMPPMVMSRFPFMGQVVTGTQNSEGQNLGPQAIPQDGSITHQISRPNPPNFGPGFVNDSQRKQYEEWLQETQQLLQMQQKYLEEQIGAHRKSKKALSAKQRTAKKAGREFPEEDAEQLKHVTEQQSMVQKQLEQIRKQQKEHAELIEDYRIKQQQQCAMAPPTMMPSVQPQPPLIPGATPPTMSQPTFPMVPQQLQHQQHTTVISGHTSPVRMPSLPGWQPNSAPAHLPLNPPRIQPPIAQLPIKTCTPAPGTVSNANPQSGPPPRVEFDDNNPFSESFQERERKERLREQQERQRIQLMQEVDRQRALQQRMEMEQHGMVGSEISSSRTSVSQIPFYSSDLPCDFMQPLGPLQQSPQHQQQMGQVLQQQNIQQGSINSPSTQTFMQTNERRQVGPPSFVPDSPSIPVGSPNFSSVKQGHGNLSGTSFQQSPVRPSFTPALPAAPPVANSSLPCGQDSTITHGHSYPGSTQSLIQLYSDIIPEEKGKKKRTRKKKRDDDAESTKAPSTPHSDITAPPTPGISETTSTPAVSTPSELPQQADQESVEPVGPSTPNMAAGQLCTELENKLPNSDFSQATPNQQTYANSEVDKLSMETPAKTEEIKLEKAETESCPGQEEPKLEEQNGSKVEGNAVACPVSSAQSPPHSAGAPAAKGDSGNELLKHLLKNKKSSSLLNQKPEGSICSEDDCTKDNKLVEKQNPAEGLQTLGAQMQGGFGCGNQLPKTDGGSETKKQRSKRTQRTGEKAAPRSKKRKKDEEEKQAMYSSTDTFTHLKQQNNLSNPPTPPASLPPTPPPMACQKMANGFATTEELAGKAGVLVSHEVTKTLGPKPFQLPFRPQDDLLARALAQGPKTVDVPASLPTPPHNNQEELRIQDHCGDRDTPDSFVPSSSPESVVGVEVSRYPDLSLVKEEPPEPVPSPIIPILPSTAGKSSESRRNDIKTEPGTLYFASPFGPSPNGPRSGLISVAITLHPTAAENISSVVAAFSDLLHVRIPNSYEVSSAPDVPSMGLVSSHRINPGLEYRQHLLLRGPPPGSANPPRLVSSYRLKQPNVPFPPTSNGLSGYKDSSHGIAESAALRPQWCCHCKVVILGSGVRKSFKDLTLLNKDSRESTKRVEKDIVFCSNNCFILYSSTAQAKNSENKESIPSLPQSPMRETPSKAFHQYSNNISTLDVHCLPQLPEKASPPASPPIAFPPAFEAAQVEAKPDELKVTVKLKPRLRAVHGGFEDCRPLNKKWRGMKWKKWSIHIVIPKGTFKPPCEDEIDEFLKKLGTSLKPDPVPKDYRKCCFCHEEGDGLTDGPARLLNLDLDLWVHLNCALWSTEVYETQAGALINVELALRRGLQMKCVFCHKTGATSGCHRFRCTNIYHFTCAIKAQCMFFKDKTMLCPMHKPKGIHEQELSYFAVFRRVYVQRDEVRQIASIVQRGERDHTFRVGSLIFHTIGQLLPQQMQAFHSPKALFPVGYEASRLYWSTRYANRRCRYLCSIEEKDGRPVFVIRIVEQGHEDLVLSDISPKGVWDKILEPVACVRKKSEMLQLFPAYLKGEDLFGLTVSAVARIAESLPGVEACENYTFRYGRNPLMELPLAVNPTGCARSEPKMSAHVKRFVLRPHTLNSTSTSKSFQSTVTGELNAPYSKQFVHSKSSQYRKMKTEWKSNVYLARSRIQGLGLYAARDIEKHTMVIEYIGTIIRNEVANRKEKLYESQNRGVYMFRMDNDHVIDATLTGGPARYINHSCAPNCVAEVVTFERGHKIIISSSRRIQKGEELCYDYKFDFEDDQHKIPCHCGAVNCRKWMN
UniProt Q96AT1: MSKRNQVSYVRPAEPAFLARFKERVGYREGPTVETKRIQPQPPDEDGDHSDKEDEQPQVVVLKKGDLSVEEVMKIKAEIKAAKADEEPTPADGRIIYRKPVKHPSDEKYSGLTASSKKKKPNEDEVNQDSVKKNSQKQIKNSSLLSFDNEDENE
UniProt Q13601: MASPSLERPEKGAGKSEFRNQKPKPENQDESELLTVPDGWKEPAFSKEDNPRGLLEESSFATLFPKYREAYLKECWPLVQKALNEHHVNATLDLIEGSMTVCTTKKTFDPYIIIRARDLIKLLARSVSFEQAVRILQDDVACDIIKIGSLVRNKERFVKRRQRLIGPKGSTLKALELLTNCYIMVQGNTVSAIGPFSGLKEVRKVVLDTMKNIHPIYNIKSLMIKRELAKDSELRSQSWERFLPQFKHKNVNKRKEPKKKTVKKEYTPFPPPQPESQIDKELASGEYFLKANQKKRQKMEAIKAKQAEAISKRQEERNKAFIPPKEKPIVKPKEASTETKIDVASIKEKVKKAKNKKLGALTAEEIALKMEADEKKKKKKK
UniProt Q8IVT5: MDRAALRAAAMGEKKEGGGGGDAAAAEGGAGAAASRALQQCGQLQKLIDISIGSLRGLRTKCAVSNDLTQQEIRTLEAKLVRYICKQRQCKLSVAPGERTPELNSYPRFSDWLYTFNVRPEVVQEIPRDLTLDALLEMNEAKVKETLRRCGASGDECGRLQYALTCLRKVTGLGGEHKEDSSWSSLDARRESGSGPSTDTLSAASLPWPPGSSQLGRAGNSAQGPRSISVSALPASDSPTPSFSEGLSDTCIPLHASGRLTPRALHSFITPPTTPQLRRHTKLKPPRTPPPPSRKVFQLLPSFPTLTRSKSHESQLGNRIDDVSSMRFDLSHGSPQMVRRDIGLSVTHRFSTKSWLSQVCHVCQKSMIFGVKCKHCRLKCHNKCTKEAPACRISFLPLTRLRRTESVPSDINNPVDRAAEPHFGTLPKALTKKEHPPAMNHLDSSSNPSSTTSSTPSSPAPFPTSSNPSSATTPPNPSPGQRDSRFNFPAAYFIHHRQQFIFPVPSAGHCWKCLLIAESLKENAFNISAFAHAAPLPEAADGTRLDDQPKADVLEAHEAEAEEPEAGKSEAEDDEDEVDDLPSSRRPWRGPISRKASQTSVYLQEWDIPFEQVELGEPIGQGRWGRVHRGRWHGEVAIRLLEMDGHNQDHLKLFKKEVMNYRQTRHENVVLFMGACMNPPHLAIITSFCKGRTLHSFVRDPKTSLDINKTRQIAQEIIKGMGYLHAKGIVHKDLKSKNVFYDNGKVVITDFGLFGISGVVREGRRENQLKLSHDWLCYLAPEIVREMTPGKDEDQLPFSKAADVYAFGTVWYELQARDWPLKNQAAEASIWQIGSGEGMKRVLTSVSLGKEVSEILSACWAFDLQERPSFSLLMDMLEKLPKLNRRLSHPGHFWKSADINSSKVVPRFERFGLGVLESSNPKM

What was measured:
Assay in all cases: log2 fold change, soluble protein after heating vs DMSO (PISA); higher = thermal stabilisation; K562 lysate, 10 uM; active = over 0.2 and 3.5 SD of the protein, either way, in both replicates (recomputed)
vemurafenib = compound: CCCS(=O)(=O)Nc1ccc(F)c(C(=O)c2c[nH]c3ncc(-c4ccc(Cl)cc4)cc23)c1F [vemurafenib]
In short: (§1)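 K562 pellets were dounce-homogenised in PBS pH 7.4 with 1 mM MgCl2, and the crude extract at 1 mg/mL protein was treated with 10 μM compound for 30 min. Aliquots were heated for 3 min across 48°C-58°C, pooled, and brought to 0.5% NP-40 at 4°C; soluble protein was the supernatant after 21,000xg for 90 min. Soluble protein was quantified by TMTpro 16plex LC-MS/MS with channel sums equalised, and reported as log2 fold change in thermal stability against DMSO controls, with values from duplicates.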

[1] = compound: CCCS(=O)(=O)Nc1ccc(F)c(C(=O)c2c[nH]c3ncc(Cl)cc23)c1F
In short: as §1

barasertib = compound: CCN(CCCOc1ccc2c(Nc3cc(CC(=O)Nc4cccc(F)c4)[nH]n3)ncnc2c1)CCOP(=O)(O)O [barasertib]
In short: as §1

[2] = compound: CC[C@@H]1C(=O)N(C)c2cnc(Nc3ccc(C(=O)NC4CCN(C)CC4)cc3OC)nc2N1C1CCCC1
In short: as §1

volasertib = compound: CC[C@@H]1C(=O)N(C)c2cnc(Nc3ccc(C(=O)N[C@H]4CC[C@H](N5CCN(CC6CC6)CC5)CC4)cc3OC)nc2N1C(C)C [volasertib]
In short: as §1

[3] = compound: CCn1c(C(=O)N(C2CC2)C2CC2)cc2c3c(ncn3C)c(Nc3cc(C)n(C)n3)nc21
In short: as §1

[4] = compound: CCn1cc(-c2ccnc3[nH]c(-c4cccc(CN(C)C)c4)cc23)c(-c2ccc(NC(=O)N(C)C)cc2)n1
In short: as §1

[5] = compound: CN1CCC(CNc2ccc3ncc(-c4cccc(OC(F)(F)F)c4)n3n2)CC1
In short: as §1

saracatinib = compound: CN1CCN(CCOc2cc(OC3CCOCC3)c3c(Nc4c(Cl)ccc5c4OCO5)ncnc3c2)CC1 [saracatinib]
In short: as §1

sotrastaurin = compound: CN1CCN(c2nc(C3=C(c4c[nH]c5ccccc45)C(=O)NC3=O)c3ccccc3n2)CC1 [sotrastaurin]
In short: as §1

alvocidib = compound: CN1CC[C@H](c2c(O)cc(O)c3c(=O)cc(-c4ccccc4Cl)oc23)[C@H](O)C1 [alvocidib]
In short: as §1

Tubastatin A = compound: CN1CCc2c(c3ccccc3n2Cc2ccc(C(=O)NO)cc2)C1 [Tubastatin A]
In short: as §1

[6] = compound: CNC(=O)C1=CC=CC=C1NC2=NC(=NC=C2Cl)NC3=C(C=C(C=C3)N4CCOCC4)OC
In short: as §1

defactinib = compound: CNC(=O)c1ccc(Nc2ncc(C(F)(F)F)c(NCc3nccnc3N(C)S(C)(=O)=O)n2)cc1 [defactinib]
In short: as §1

[7] = compound: CNc1nc(-c2ccc3c(N)n[nH]c3c2)cc(N2C[C@@H](C(=O)NC3CCCCC3)CC[C@H]2C)n1
In short: as §1

encorafenib = compound: COC(=O)N[C@@H](C)CNc1nccc(-c2cn(C(C)C)nc2-c2cc(Cl)cc(NS(C)(=O)=O)c2F)n1 [encorafenib]
In short: as §1

[8] = compound: COC(=O)[C@H](CCSC)NC(=O)C1=C(C=C(C=C1)NC[C@H](CS)N)C2=CC=CC=C2
In short: as §1

alisertib = compound: COc1cc(Nc2ncc3c(n2)-c2ccc(Cl)cc2C(c2c(F)cccc2OC)=NC3)ccc1C(=O)O [alisertib]
In short: as §1

[9] = compound: COc1cc2nc(-c3cc(F)ccc3O)nc(N[C@@H]3CNC[C@H]3C(C)(C)O)c2cc1OC
In short: as §1

gefitinib = compound: COc1cc2ncnc(Nc3ccc(F)c(Cl)c3)c2cc1OCCCN1CCOCC1 [gefitinib]
In short: as §1

Measured: log2 fold change

LARP1B, A0A3B3ISF0
inactive: vemurafenib 0.067 | [1] -0.068 | barasertib -0.04 | [2] 0.026 | volasertib -0.036 | [3] 0.029 | [4] -0.028 | [5] -0.034 | saracatinib -0.014 | sotrastaurin 0.022 | alvocidib 0.007 | Tubastatin A -0.04 | [6] -0.048 | defactinib -0.041 | [7] 0.021 | encorafenib 0.036 | [8] 0.136 | alisertib 0.045 | [9] 0.029 | gefitinib 0.052

KLHL18 (UniProt O94889)
inactive: vemurafenib 0 | [1] 0.002 | barasertib 0.013 | [2] -0.017 | volasertib -0.035 | [3] 0.007 | [4] -0.051 | [5] 0.016 | saracatinib -0.025 | sotrastaurin 0.107 | alvocidib -0.009 | Tubastatin A -0.079 | [6] 0.026 | defactinib 0.073 | [7] -0.016 | encorafenib -0.112 | [8] -0.103 | alisertib 0.009 | [9] -0.023 | gefitinib -0.088

KDM8 isoform 3 (UniProt Q8N371)
inactive: vemurafenib -0.032 | [1] 0.004 | barasertib 0.061 | [2] 0.021 | volasertib -0.01 | [3] -0.006 | [4] 0.005 | [5] 0.046 | saracatinib -0.059 | sotrastaurin 0.001 | alvocidib 0.004 | Tubastatin A 0.013 | [6] 0.019 | defactinib 0.038 | [7] 0.121 | encorafenib -0.002 | [8] -0.059 | alisertib -0.007 | [9] 0.011 | gefitinib 0

KIF5B (UniProt P33176)
inactive: vemurafenib -0.036 | [1] 0.001 | barasertib 0.009 | [2] 0.017 | volasertib -0.025 | [3] 0.025 | [4] 0.043 | [5] -0.046 | saracatinib -0.03 | sotrastaurin 0.01 | alvocidib 0.014 | Tubastatin A -0.03 | [6] 0.002 | defactinib 0.022 | [7] -0.009 | encorafenib -0.008 | [8] 0.054 | alisertib -0.007 | [9] 0.008 | gefitinib 0.013

LARP4B (UniProt Q92615)
inactive: vemurafenib -0.014 | [1] 0.011 | barasertib -0.033 | [2] -0.029 | volasertib -0.042 | [3] 0.08 | [4] -0.116 | [5] 0.038 | saracatinib 0.011 | sotrastaurin -0.019 | alvocidib 0.001 | Tubastatin A -0.118 | [6] 0.005 | defactinib 0.023 | [7] -0.027 | encorafenib 0.024 | [8] 0.015 | alisertib 0.025 | [9] -0.013 | gefitinib -0.006

LAMTOR1 (UniProt Q6IAA8)
inactive: vemurafenib -0.013 | [1] 0.009 | barasertib 0.104 | [2] -0.03 | volasertib 0.064 | [3] -0.046 | [4] -0.112 | [5] -0.07 | saracatinib 0 | sotrastaurin -0.056 | alvocidib 0.052 | Tubastatin A 0.057 | [6] 0.062 | defactinib 0.105 | [7] 0.048 | encorafenib 0.015 | [8] -0.018 | alisertib -0.028 | [9] -0.036 | gefitinib -0.06

KMT2C isoform 3 (UniProt Q8NEZ4)
inactive: vemurafenib 0 | [1] -0.033 | barasertib 0.006 | [2] -0.041 | volasertib -0.048 | [3] 0.024 | [4] -0.035 | [5] 0.175 | saracatinib -0.008 | sotrastaurin 0 | alvocidib -0.025 | Tubastatin A -0.015 | [6] -0.017 | defactinib 0.068 | [7] -0.019 | encorafenib 0.002 | [8] 0.001 | alisertib -0.009 | [9] 0.028 | gefitinib 0.038

KIAA1143 (UniProt Q96AT1)
inactive: vemurafenib -0.02 | [1] -0.012 | barasertib -0.101 | [2] 0.066 | volasertib 0.033 | [3] -0.033 | [4] -0.008 | [5] 0.089 | saracatinib 0.036 | sotrastaurin 0.028 | alvocidib -0.009 | Tubastatin A 0.076 | [6] 0.046 | defactinib 0.073 | [7] 0.05 | encorafenib -0.022 | [8] -0.039 | alisertib 0.01 | [9] 0.017 | gefitinib 0.013

KRR1 (UniProt Q13601)
inactive: vemurafenib 0.057 | [1] 0.01 | barasertib 0.026 | [2] 0.065 | volasertib -0.015 | [3] 0.023 | [4] -0.006 | [5] -0.026 | saracatinib 0.003 | sotrastaurin -0.021 | alvocidib 0.028 | Tubastatin A -0.033 | [6] -0.054 | defactinib 0.01 | [7] -0.005 | encorafenib 0.092 | [8] 0.023 | alisertib 0.032 | [9] 0.046 | gefitinib -0.014

Retrieved one by one from above, two records:
LARP4B (UniProt Q92615)
inactive: vemurafenib -0.014 | [1] 0.011 | barasertib -0.033 | [2] -0.029 | volasertib -0.042 | [3] 0.08 | [4] -0.116 | [5] 0.038 | saracatinib 0.011 | sotrastaurin -0.019 | alvocidib 0.001 | Tubastatin A -0.118 | [6] 0.005 | defactinib 0.023 | [7] -0.027 | encorafenib 0.024 | [8] 0.015 | alisertib 0.025 | [9] -0.013 | gefitinib -0.006

LAMTOR1 (UniProt Q6IAA8)
inactive: vemurafenib -0.013 | [1] 0.009 | barasertib 0.104 | [2] -0.03 | volasertib 0.064 | [3] -0.046 | [4] -0.112 | [5] -0.07 | saracatinib 0 | sotrastaurin -0.056 | alvocidib 0.052 | Tubastatin A 0.057 | [6] 0.062 | defactinib 0.105 | [7] 0.048 | encorafenib 0.015 | [8] -0.018 | alisertib -0.028 | [9] -0.036 | gefitinib -0.06

Following part

KTN1 (UniProt Q86UP2)
inactive: vemurafenib -0.012 | [1] 0.012 | barasertib 0.015 | [2] 0.023 | volasertib 0 | [3] -0.02 | [4] 0 | [5] -0.016 | saracatinib 0.009 | sotrastaurin -0.007 | alvocidib -0.001 | Tubastatin A 0.007 | [6] -0.003 | defactinib -0.014 | [7] 0.016 | encorafenib 0.004 | [8] 0.041 | alisertib 0 | [9] 0.003 | gefitinib 0.006

KSR1 (UniProt Q8IVT5)
inactive: vemurafenib 0.021 | [1] 0.049 | barasertib -0.022 | [2] -0.009 | volasertib 0.016 | [3] 0.009 | [4] 0.187 | [5] -0.056 | saracatinib -0.003 | sotrastaurin -0.065 | alvocidib 0.214 | Tubastatin A -0.086 | [6] -0.042 | defactinib -0.045 | [7] -0.038 | encorafenib 0.075 | [8] 0.257 | alisertib 0.028 | [9] 0.115 | gefitinib -0.016

KIF21A isoform 5 (UniProt Q7Z4S6)
inactive: vemurafenib 0.03 | [1] 0.041 | barasertib 0.005 | [2] -0.038 | volasertib -0.026 | [3] -0.025 | [4] 0.165 | [5] -0.101 | saracatinib 0.037 | sotrastaurin 0.017 | alvocidib 0.106 | Tubastatin A -0.066 | [6] 0.022 | defactinib 0.007 | [7] 0.008 | encorafenib -0.016 | [8] 0.09 | alisertib -0.033 | [9] -0.002 | gefitinib -0.012

KIAA0319L (UniProt Q8IZA0)
inactive: vemurafenib -0.012 | [1] -0.028 | barasertib 0.032 | [2] 0.046 | volasertib 0.016 | [3] 0.007 | [4] 0.03 | [5] 0.006 | saracatinib 0.046 | sotrastaurin -0.003 | alvocidib -0.016 | Tubastatin A 0.032 | [6] -0.029 | defactinib -0.007 | [7] -0.007 | encorafenib 0.049 | [8] -0.013 | alisertib 0.031 | [9] -0.001 | gefitinib 0.055

KLF16 (UniProt Q9BXK1)
inactive: vemurafenib -0.201 | [1] 0.025 | barasertib -0.206 | [2] 0.239 | volasertib 0.009 | [3] 0.048 | [4] 0.037 | [5] 0.104 | saracatinib 0.045 | sotrastaurin -0.089 | alvocidib -0.137 | Tubastatin A -0.049 | [6] 0.033 | defactinib -0.026 | [7] -0.041 | encorafenib -0.182 | [8] 0.061 | alisertib 0.042 | [9] -0.01 | gefitinib -0.008

KIN (UniProt O60870)
inactive: vemurafenib 0.017 | [1] -0.009 | barasertib -0.02 | [2] -0.007 | volasertib 0.003 | [3] -0.007 | [4] -0.035 | [5] -0.022 | saracatinib -0.053 | sotrastaurin 0.021 | alvocidib -0.049 | Tubastatin A 0.055 | [6] -0.033 | defactinib 0.044 | [7] 0.074 | encorafenib -0.037 | [8] 0.048 | alisertib 0.02 | [9] 0.041 | gefitinib 0.039

KIF5A (UniProt Q12840)
inactive: vemurafenib 0.013 | [1] 0.006 | barasertib 0.035 | [2] -0.016 | volasertib -0.054 | [3] 0.017 | [4] 0.027 | [5] -0.018 | saracatinib 0.009 | sotrastaurin 0.024 | alvocidib 0.012 | Tubastatin A -0.041 | [6] -0.011 | defactinib 0.001 | [7] -0.013 | encorafenib -0.002 | [8] 0.053 | alisertib 0.001 | [9] -0.001 | gefitinib 0.013
